The test deals with Epidermal growth factor receptor (EGFR), endogenous (human (endogenous in 786-O and Caki-1)) (UniProt P00533). As to the kind of experiment: co-IP; endogenous co-IP from 786-O and Caki-1 cells; about 200 ug total cellular protein incubated with the target antibody overnight at 4 °C, protein A-agarose beads, rabbit control IgG as negative control, immunoblot. For orientation: In western blotting, separated proteins are transferred to a membrane and probed.

No constants are given. Whether binding was seen depends on the method and setting. Binding seen in cells or lysates may run through a third protein. Some entries that bind do so weakly or less than the wild type.

B1: Procollagen-lysine, 2-oxoglutarate 5-dioxygenase 2 (PLOD2), endogenous (enzyme, UniProt O00469 26-737)
chain: ADSEKPSSIPTDKLLVITVATKESDGFHRFMQSAKYFNYTVKVLGQGEEWRGGDGINSIGGGQKVRLMKEVMEHYADQDDLVVMFTECFDVIFAGGPEEVLKKFQKANHKVVFAADGILWPDKRLADKYPVVHIGKRYLNSGGFIGYAPYVNRIVQQWNLQDNDDDQLFYTKVYIDPLKREAINITLDHKCKIFQTLNGAVDEVVLKFENGKARAKNTFYETLPVAINGNGPTKILLNYFGNYVPNSWTQDNGCTLCEFDTVDLSAVDVHPNVSIGVFIEQPTPFLPRFLDILLTLDYPKEALKLFIHNKEVYHEKDIKVFFDKAKHEIKTIKIVGPEENLSQAEARNMGMDFCRQDEKCDYYFSVDADVVLTNPRTLKILIEQNRKIIAPLVTRHGKLWSNFWGALSPDGYYARSEDYVDIVQGNRVGVWNVPYMANVYLIKGKTLRSEMNERNYFVRDKLDPDMALCRNAREMGVFMYISNRHEFGRLLSTANYNTSHYNNDLWQIFENPVDWKEKYINRDYSKIFTENIVEQPCPDVFWFPIFSEKACDELVEEMEHYGKWSGGKHHDSRISGGYENVPTDDIHMKQVDLENVWLHFIREFIAPVTLKVFAGYYTKGFALLNFVVKYSPERQRSLRPHHDASTFTINIALNNVGEDFQGGGCKFLRYNCSIESPRKGWSFMHPGRLTHLHEGLPVKNGTRYIAVSFIDP
Regarding B1, the binding entry is given as “binds”.

These data come from PMC10679098.
